{"source": "PubChem BioAssay AID540276", "about": "(National Center for Advancing Translational Sciences (NCATS), 2011)", "note": "Values joined by “and” are separate entries in the source; they are usually repeats but may differ in a detail not shown here. Identical values can stand only once. Out of some 300,000 compounds screened, about 5,400 (1.8%) were called active. Inconclusive means that the source gave no clear call. Such entries were picked first, then a sample of the others. The call rests on the fitted dose curve; tested in HEK293 cells. Potencies beside an inconclusive call are fits to weak or partial responses and may not hold up. On the % scale 0 is the no-effect control and ±100 the full control effect; potency means the concentration at half of the fitted maximal effect."}
{"test": "qHTS for inhibitors of binding or entry into cells for Marburg Virus", "settings": "Marburg virus pseudotyped entry inhibition, cell reporter; activity change, negative = inhibition: at 37.8 µM (top of the series) unless noted"}
{"smiles": "CNC(=S)N/N=C/c1cc(Br)cc(Br)c1O", "Potency": "inconclusive: 29.1 µM [inhibitor, partial curve, poor fit]"}
{"smiles": "O=C1C2CCCN2C(=O)N1CCCCN1CCN(c2ccccc2)CC1", "note": "(stereo unspecified)", "activity change, negative = inhibition": "inactive: 6.3%"}
{"smiles": "COc1ccc(NS(=O)(=O)c2ccc3nc(COc4cccc5ccccc45)[nH]c3c2)cc1", "Potency": "active: 14.6 µM"}
{"smiles": "C/C(=N/NC(=O)c1cc(C)[nH]n1)c1ccncc1", "activity change, negative = inhibition": "inactive: 13.6% [at 46.1 µM]"}
{"smiles": "Cc1cccc(CS(=O)(=O)c2ncc(Cl)c(C(=O)Nc3nnc(C(C)C)s3)n2)c1", "Potency": "inconclusive: 15.8 µM [inhibitor, partial curve, poor fit]"}
{"smiles": "CN1CCN(c2ccc(Nc3ccnc4cc(Cl)ccc34)cc2)CC1", "Potency": "inconclusive: 2.82 µM [inhibitor, full curve, poor fit]"}
{"smiles": "CCOC(=O)c1sc(NC(=O)CN2C(=O)NC3(CC(C)CC(C)(C)C3)C2=O)cc1C", "note": "(stereo unspecified)", "Potency": "inconclusive: 31.6 µM [inhibitor, partial curve, poor fit]"}
{"smiles": "O=C(CCC(=O)Nc1ccccc1)N/N=C/c1ccccc1F", "Potency": "inconclusive: 14.1 µM [activator, single point]"}
{"smiles": "O=C(Nc1cccc(S(=O)(=O)N2CCCC2)c1)c1ccc2c(c1)OCO2", "activity change, negative = inhibition": "inactive: -0.276%"}
{"smiles": "Cc1c(Cl)cccc1NC(=S)N(CCCN1CCOCC1)Cc1cccs1", "Potency": "inconclusive: 35.5 µM [inhibitor, single point]"}
{"smiles": "Cc1cccc(C)c1OCCOC(=O)c1n[nH]c2ccccc12", "Potency": "inconclusive: 15.8 µM [inhibitor, partial curve, poor fit]"}
{"smiles": "Cc1cccc(C)c1NC(=O)CN1C(=O)COc2ccccc21", "Potency": "inconclusive: 1.12 µM [inhibitor, single point]"}
{"smiles": "CCOC(=O)C1CCN(C(=O)Cc2cccs2)CC1", "Potency": "inconclusive: 14.1 µM [activator, partial curve, poor fit]"}
{"smiles": "O=C(COC(=O)c1sc2cc(F)ccc2c1Cl)Nc1ncc(Cl)cc1Cl", "activity change, negative = inhibition": "inconclusive: 2.08% [activator]"}
{"smiles": "CCC(=O)Nc1cccc(NC(=S)NC(=O)c2ccc(Cl)cc2)c1", "activity change, negative = inhibition": "inactive: 2.26%"}
{"smiles": "Cc1cc(C(=O)COC(=O)/C=C/c2ccco2)c(C)n1C", "Potency": "inconclusive: 8.91 µM [activator, partial curve, poor fit]"}
{"smiles": "CCOC(=O)c1c(-c2ccccc2)csc1NC(=O)CSc1nncs1", "Potency": "inconclusive: 35.5 µM [inhibitor, single point]"}
{"smiles": "CCOC(=O)c1c(NC(=O)C2=C(C)NC(=S)NC2c2ccc(C)cc2)sc(C)c1C", "note": "(stereo unspecified)", "Potency": "inconclusive: 25.1 µM [inhibitor, single point]"}
{"smiles": "Cc1ccccc1-c1cc(-c2ccccc2O)on1", "Potency": "inconclusive: 4.61 µM [activator, partial curve, poor fit]"}
{"smiles": "Cc1ccc(-c2nnc(CCC(=O)NCC3C4CC5CC(C4)CC3C5)o2)s1", "note": "(stereo unspecified)", "Potency": "inconclusive: 14.1 µM [activator, partial curve, poor fit]"}
{"smiles": "Cc1ccc(C(=O)N/C(=C\\c2cccc([N+](=O)[O-])c2)C(=O)OCN2C(=O)c3ccccc3C2=O)cc1", "Potency": "inconclusive: 1.26 µM [activator, full curve, poor fit]"}
{"smiles": "O=C(CN1CCCCC1)Nc1ccccc1-c1ccccc1", "Potency": "inconclusive: 0.82 µM [inhibitor, full curve, poor fit]"}
{"smiles": "CCOC(=O)C1=C(C(F)(F)F)Nc2ncnn2C1c1ccc(OC)c(OC)c1OC", "note": "(stereo unspecified)", "Potency": "inconclusive: 0.891 µM [activator, full curve, poor fit]"}
{"smiles": "COc1ccc(-c2cc(C(=O)NCc3cn(C)nc3C)c3ccccc3n2)cc1OC", "Potency": "inconclusive: 0.794 µM [inhibitor, full curve, poor fit]"}
{"smiles": "Cc1ccc2nc(SCC3CCCCO3)[nH]c2c1", "note": "(stereo unspecified)", "Potency": "active: 2.82 µM"}
{"smiles": "O=C(Nc1ccc(N2CCCCC2)cc1)c1ccccn1", "Potency": "active: 0.461 µM"}
{"smiles": "CCC1CCCCN1C(=O)Nc1cccc(NC(=O)N2CCCCC2CC)c1", "note": "(stereo unspecified)", "Potency": "inconclusive: 6.31 µM [activator, full curve, poor fit]"}
{"smiles": "COc1ccc(N(CCCN2C(=O)c3cccc4cccc(c34)C2=O)C(=O)c2cccc(OC)c2)cc1", "Potency": "inconclusive: 7.08 µM [inhibitor, partial curve, poor fit]"}
{"smiles": "Cc1nc2cc(NC(=O)Nc3ccc(N4CCOCC4)cc3)ccc2n1C", "activity change, negative = inhibition": "inactive: 6.48%"}
{"smiles": "COc1ccc(CCNC(=O)c2ccc(Cl)cc2)cc1", "Potency": "inconclusive: 0.146 µM [inhibitor, partial curve, poor fit]"}
{"smiles": "COc1cccc(N2CCN(C(=O)Nc3ccccc3Cl)CC2)c1", "Potency": "inconclusive: 4.47 µM [inhibitor, single point]"}
{"smiles": "C=CCNC(=O)c1ccccc1NC(=O)c1ccc(Cl)c(S(=O)(=O)Nc2ccccc2)c1", "Potency": "inconclusive: 29.1 µM [inhibitor, single point]"}
{"smiles": "COc1ccccc1NC(=O)CSc1nnc(CC(=O)Nc2ccccc2F)n1C", "activity change, negative = inhibition": "inactive: 9.87% [at 46.1 µM]"}
{"smiles": "CSc1cccc(NC(=O)c2cccc3cccnc23)c1", "Potency": "inconclusive: 7.94 µM [activator, full curve, poor fit]"}
{"smiles": "CCOC(=O)N1CCN(Cc2nc3cc(NC(C)=O)ccc3n2C)CC1", "Potency": "inconclusive: 12.6 µM [activator, partial curve, poor fit]"}
{"smiles": "Cc1ccccc1NC(=O)NNC(=O)CCc1ccccc1", "activity change, negative = inhibition": "inactive: 4.02% [at 46.1 µM]"}
{"smiles": "COc1ccc(/C=N/N=C2/NC(=O)CC(C(=O)O)S2)cc1", "note": "(stereo unspecified)", "Potency": "inconclusive: 5.62 µM [activator, single point]"}
{"smiles": "COc1cccc(NC(=O)CCC2CCN(C(=O)c3cncs3)CC2)c1", "Potency": "inconclusive: 1.26 µM [activator, single point]"}
{"smiles": "O=C(NNC(=O)c1cc(Br)c(Br)s1)c1ccncc1", "Potency": "inconclusive: 22.4 µM [inhibitor, single point]"}
{"smiles": "CCOC(=O)c1c(NC(=O)c2cc(-c3ccc(Br)cc3)on2)sc(C(C)=O)c1C", "Potency": "inconclusive: 35.5 µM [inhibitor, single point]"}
{"smiles": "COc1ccc(NC(=O)C(NS(=O)(=O)c2cccc3nsnc23)C(C)C)cc1", "note": "(stereo unspecified)", "activity change, negative = inhibition": "inactive: -6.56% [at 46.1 µM]"}
{"smiles": "COc1ccc2ccccc2c1CNC(C)CCc1ccccc1", "note": "(stereo unspecified)", "Potency": "inconclusive: 7.08 µM [inhibitor, partial curve, poor fit]"}
{"smiles": "COc1ccc2c(c1)CCc1c(C(=O)N3CC4(C)CC3CC(C)(C)C4)noc1-2", "note": "(stereo unspecified)", "Potency": "inconclusive: 18.3 µM [inhibitor, single point]"}
{"smiles": "COc1ccccc1C(=O)NC(=O)CSc1cccc[n+]1[O-]", "Potency": "inconclusive: 0.891 µM [activator, full curve, poor fit]"}
{"smiles": "Cc1ccc(C2(C)NC(=O)N(CC(=O)NNC(=O)c3ccccc3F)C2=O)cc1", "note": "(stereo unspecified)", "Potency": "inconclusive: 1.12 µM [activator, single point]"}
{"smiles": "CC/C(=C\\c1oc2cc3ccccc3cc2[n+]1CC)Nc1ccccc1", "activity change, negative = inhibition": "inactive: -12.4% [at 14.2 µM]"}
{"smiles": "Cn1ccnc1SCC(=O)Nc1cccc(O)c1", "Potency": "inconclusive: 0.231 µM [inhibitor, partial curve]"}
{"smiles": "Cc1ccccc1CN1C(=O)c2ccccc2Sc2ccc(C(=O)NCCN3CCOCC3)cc21", "Potency": "inconclusive: 10 µM [inhibitor, partial curve, poor fit]"}
{"smiles": "Cc1cccc(NC(=O)c2cc(NC(=O)CCCC(=O)O)ccc2Cl)n1", "Potency": "inconclusive: 29.1 µM [activator, single point]"}
{"smiles": "COc1cc(C)nc(N(Cc2ccccc2)S(=O)(=O)c2ccccc2)n1", "Potency": "inconclusive: 0.355 µM [activator, partial curve, poor fit]"}
{"smiles": "CN(C)c1ccc(P(=O)(Nc2cccc(C(F)(F)F)c2)N2CCOCC2)c(NC(=O)c2cccs2)c1", "note": "(stereo unspecified)", "activity change, negative = inhibition": "inactive: -26.8% [at 46.1 µM]"}
{"smiles": "COc1ccccc1CNc1nc2c(S(=O)(=O)c3ccc(C)c(C)c3)nnn2c2ccc(Cl)cc12", "activity change, negative = inhibition": "inactive: 0.0768% [at 46.1 µM]"}
{"smiles": "CC(C)=CCC/C(C)=C/CO/N=C1\\C[C@@H](O)[C@@H](O)[C@@H]2[C@@H]3C(=O)N(C[C@@H]4CCCO4)C(=O)[C@@H]3CC[C@@H]12", "activity change, negative = inhibition": "inactive: 21.6% [at 14.2 µM]"}
{"smiles": "O=C(NCc1ccccn1)C(C(=O)c1ccc(F)cc1)n1ccccc1=O", "note": "(stereo unspecified)", "Potency": "inconclusive: 20.6 µM [activator, single point]"}
{"smiles": "CC(NC(C)(C)C)C(=O)c1cccc(Cl)c1", "note": "(stereo unspecified)", "Potency": "inconclusive: 5.62 µM [inhibitor, single point]"}
{"smiles": "O=C(Nc1ccc([N+](=O)[O-])cc1NC(=O)c1ccccc1)c1ccccc1", "Potency": "inconclusive: 1 µM [inhibitor, full curve, poor fit]"}
{"smiles": "c1ccc(CN2CN=C(Nc3nc4ccccc4s3)NC2)cc1", "activity change, negative = inhibition": "inactive: 1.88%"}
{"smiles": "Cc1ccnc(NC(=O)c2ccc(S(=O)(=O)N3CCC(C)CC3)cc2)c1", "Potency": "inconclusive: 3.16 µM [activator, partial curve, poor fit]"}
{"smiles": "Cc1onc(-c2ccccc2)c1C(=O)NNC(=S)NC(=O)/C=C/c1cccs1", "Potency": "inconclusive: 35.5 µM [inhibitor, single point]"}
{"smiles": "CC(=O)C1=C(C)N(Cc2ccccc2)C(=O)N[C@H]1c1ccc(Br)cc1", "activity change, negative = inhibition": "inactive: -0.338% [at 14.2 µM]"}
{"smiles": "Cc1cc(C)c2nc(N(CCCN(C)C)C(=O)c3ccc(S(=O)(=O)N4CCCCCC4)cc3)sc2c1", "Potency": "inconclusive: 35.5 µM [inhibitor, single point]"}
{"smiles": "COc1ccc(NS(=O)(=O)c2cc(NC(=O)COc3ccccc3)ccc2N2CCOCC2)cc1", "Potency": "inconclusive: 35.5 µM [inhibitor, single point]"}
{"smiles": "COc1ccc(CCNC(=O)c2ccc3c(c2)N(Cc2ccc(F)cc2)C(=O)c2ccccc2S3(=O)=O)cc1OC", "Potency": "active: 10 µM"}
{"smiles": "CCCS(=O)(=O)N1CCC(C(=O)NCc2ccccc2Cl)CC1", "activity change, negative = inhibition": "inactive: 15.3%"}
{"smiles": "COc1cc(/C=C/c2cccc[n+]2C)ccc1OCC(=O)Nc1ccccc1", "activity change, negative = inhibition": "inactive: -5.01% [at 46.1 µM]"}
{"smiles": "CC12C(=O)OC(=O)C1(C)C1CCC2O1", "note": "(stereo unspecified)", "Potency": "active: 3.26 µM and active: 1.58 µM"}
